# Reference: the supplement of paper PMC6411743
# The chains behind the UniProt entries cited, without tags or fusion partners. Where a name states a change or a piece, a line headed by the entry shows the natural chain unless it says otherwise.
# UniProt Q8N4N3: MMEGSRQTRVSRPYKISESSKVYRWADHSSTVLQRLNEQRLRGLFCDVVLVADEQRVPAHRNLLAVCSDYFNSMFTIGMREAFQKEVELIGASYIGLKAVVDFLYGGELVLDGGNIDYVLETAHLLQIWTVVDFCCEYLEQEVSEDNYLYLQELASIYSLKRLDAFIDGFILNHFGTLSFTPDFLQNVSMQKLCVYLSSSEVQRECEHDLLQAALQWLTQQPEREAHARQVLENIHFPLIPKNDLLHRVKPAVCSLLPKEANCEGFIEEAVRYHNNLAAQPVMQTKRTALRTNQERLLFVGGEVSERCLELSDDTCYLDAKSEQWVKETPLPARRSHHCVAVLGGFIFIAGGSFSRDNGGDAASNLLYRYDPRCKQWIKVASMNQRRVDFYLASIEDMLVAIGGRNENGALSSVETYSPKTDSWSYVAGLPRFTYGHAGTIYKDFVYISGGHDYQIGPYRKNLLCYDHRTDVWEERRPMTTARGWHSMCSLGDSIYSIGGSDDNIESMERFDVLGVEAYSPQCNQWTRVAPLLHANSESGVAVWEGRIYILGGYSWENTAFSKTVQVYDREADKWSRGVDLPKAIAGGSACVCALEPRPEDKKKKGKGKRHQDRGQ
# UniProt Q8TB36: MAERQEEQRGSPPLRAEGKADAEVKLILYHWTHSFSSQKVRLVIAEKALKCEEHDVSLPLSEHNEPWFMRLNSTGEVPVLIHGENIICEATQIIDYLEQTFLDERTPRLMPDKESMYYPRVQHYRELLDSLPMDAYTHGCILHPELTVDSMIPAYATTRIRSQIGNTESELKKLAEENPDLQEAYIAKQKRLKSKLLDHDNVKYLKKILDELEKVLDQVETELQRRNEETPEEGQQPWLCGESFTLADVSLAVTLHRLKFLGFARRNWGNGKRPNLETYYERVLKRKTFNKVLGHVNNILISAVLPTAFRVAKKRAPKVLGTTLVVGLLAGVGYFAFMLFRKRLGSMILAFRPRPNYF
# UniProt Q8NFW8: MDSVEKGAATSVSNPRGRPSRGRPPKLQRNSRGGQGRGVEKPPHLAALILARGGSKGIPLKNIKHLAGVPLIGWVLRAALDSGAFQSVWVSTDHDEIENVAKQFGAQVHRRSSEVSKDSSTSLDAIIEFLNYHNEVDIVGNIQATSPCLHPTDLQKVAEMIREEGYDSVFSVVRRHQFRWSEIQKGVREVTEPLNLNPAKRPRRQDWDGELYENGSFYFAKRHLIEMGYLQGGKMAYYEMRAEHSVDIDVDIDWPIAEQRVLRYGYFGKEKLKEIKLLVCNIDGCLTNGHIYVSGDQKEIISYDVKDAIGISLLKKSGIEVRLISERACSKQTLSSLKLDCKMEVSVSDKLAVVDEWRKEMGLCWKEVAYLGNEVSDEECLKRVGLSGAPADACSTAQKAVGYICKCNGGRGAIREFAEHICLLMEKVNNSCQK
# UniProt Q8NB14: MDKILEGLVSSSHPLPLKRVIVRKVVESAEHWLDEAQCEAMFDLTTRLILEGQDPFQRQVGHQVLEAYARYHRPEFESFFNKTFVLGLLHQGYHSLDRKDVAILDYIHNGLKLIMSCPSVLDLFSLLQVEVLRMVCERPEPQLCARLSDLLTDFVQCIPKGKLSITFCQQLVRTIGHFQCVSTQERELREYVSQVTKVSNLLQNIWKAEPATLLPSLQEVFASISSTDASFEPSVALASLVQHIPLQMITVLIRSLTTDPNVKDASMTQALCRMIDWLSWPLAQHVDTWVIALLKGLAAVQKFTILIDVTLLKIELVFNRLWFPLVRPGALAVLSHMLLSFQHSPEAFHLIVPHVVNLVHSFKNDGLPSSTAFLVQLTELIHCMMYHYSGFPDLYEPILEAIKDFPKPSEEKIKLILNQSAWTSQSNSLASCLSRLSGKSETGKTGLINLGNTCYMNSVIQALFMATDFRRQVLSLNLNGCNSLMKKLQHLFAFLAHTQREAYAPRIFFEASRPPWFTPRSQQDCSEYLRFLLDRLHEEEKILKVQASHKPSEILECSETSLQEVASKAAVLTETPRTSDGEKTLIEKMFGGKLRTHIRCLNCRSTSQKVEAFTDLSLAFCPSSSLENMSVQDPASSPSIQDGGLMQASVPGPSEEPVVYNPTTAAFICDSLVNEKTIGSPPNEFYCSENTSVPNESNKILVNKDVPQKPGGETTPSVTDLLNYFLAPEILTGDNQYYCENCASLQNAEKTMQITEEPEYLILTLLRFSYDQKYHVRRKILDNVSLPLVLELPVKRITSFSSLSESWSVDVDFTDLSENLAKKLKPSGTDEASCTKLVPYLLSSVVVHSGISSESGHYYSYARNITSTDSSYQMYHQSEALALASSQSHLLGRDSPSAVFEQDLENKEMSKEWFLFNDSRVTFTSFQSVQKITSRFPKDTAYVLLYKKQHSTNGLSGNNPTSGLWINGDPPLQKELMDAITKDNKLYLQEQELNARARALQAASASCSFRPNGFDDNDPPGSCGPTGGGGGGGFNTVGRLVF
# UniProt Q8NI37: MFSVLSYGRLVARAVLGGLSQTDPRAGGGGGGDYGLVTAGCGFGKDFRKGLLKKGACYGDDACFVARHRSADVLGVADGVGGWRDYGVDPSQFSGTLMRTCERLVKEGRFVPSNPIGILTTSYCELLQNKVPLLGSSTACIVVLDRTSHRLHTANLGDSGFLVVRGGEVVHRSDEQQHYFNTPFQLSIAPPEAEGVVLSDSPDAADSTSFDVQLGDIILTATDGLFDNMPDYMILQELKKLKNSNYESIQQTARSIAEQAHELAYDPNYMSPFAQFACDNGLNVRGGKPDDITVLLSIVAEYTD
# UniProt Q8NAF0: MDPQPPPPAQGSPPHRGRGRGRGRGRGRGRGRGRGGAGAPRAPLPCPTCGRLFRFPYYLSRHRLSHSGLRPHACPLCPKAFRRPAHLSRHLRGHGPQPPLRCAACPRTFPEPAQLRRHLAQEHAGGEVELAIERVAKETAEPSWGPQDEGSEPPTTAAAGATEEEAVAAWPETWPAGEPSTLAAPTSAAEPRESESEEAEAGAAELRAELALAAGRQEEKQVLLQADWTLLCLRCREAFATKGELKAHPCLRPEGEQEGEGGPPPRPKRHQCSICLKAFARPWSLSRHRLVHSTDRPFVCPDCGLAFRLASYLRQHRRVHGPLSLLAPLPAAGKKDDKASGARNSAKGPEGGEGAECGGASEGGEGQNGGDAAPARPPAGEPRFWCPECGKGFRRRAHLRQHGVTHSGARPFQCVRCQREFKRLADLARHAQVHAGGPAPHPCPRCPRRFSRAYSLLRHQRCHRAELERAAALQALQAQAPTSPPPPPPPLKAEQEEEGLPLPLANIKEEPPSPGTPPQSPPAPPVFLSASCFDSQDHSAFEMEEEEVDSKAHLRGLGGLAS
# UniProt Q8N5C7: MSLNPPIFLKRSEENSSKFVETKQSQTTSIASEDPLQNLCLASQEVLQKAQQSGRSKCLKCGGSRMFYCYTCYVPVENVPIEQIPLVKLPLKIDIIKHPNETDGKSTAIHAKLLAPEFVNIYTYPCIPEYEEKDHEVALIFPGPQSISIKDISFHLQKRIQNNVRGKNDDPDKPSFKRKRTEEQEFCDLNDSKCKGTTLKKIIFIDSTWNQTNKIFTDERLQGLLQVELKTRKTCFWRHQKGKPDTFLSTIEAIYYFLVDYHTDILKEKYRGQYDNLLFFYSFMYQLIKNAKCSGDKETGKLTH
# UniProt Q8NDX6: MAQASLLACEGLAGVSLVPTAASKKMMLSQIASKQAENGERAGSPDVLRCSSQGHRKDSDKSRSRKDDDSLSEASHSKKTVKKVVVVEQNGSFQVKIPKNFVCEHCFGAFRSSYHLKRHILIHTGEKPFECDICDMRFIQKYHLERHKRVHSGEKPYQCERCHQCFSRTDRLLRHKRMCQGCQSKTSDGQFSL
# UniProt Q8N766: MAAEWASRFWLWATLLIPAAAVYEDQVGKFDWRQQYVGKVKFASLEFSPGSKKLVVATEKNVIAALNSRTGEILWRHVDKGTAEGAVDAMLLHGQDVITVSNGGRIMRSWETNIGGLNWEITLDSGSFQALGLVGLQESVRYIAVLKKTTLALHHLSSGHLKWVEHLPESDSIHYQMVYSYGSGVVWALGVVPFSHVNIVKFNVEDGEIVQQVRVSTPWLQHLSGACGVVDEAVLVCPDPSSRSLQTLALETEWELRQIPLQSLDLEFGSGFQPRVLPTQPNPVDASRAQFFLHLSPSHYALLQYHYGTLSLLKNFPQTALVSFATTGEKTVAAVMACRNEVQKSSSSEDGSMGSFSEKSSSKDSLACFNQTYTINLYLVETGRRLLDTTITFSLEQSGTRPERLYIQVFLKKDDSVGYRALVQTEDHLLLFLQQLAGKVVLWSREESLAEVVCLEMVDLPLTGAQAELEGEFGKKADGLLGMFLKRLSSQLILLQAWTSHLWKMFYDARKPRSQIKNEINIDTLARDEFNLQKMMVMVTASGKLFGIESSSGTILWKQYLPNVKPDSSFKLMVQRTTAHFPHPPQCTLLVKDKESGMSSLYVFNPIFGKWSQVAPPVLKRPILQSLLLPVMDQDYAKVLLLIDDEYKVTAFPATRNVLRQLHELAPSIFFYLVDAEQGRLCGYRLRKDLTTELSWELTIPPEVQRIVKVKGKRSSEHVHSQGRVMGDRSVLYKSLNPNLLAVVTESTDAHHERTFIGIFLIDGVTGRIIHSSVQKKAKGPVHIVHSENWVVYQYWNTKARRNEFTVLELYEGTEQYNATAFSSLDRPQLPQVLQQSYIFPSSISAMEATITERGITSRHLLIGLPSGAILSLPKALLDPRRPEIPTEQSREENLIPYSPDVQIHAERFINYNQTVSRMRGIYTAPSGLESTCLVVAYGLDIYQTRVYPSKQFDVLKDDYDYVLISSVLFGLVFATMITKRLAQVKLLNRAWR
# UniProt Q8N8A6: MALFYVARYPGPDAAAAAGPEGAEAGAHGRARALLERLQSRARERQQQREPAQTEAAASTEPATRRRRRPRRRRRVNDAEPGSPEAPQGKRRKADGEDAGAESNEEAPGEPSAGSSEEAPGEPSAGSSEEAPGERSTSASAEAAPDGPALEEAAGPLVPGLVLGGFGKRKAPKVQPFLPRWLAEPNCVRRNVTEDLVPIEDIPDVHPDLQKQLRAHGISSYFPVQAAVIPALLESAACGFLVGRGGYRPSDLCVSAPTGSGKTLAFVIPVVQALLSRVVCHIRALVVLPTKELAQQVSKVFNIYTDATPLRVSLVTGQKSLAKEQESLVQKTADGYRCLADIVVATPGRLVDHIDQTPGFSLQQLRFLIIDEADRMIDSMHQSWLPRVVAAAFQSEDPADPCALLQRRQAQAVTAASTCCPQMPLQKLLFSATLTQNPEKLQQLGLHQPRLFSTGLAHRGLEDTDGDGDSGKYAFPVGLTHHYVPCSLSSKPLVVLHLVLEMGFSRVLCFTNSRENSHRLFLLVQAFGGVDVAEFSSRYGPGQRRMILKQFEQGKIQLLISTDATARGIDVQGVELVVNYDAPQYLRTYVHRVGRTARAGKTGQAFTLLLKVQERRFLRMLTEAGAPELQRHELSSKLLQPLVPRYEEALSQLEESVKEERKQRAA
# UniProt Q8IY47: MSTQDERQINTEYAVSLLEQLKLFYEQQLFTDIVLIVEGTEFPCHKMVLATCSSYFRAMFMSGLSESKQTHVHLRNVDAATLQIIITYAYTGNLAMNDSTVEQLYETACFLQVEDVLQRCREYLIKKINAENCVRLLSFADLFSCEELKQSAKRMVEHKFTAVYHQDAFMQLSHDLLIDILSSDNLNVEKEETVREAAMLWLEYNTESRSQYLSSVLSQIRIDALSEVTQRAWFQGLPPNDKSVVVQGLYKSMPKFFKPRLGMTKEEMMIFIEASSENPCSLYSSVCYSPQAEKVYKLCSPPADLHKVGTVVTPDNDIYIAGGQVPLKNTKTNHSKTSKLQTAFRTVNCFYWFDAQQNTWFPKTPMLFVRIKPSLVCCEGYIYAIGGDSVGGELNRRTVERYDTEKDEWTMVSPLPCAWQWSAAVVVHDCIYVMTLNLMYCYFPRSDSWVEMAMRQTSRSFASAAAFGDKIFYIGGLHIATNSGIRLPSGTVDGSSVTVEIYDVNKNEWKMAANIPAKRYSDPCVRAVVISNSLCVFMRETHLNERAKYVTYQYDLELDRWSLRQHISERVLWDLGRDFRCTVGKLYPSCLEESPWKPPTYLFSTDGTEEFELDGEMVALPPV
# UniProt Q8N8D1: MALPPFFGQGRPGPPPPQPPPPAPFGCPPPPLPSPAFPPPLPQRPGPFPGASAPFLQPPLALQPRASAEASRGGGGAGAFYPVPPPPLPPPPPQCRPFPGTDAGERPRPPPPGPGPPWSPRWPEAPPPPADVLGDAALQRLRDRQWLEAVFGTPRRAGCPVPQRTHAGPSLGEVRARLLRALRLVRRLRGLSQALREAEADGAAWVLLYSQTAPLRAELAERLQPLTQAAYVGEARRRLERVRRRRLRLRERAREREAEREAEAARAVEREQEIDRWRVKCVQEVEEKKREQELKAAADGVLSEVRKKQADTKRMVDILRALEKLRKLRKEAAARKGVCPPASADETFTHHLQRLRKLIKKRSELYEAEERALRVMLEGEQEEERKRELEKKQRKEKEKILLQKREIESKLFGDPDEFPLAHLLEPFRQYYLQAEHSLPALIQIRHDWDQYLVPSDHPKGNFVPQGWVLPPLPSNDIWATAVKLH
# ± gives the standard deviation of the averaged measurements. The list shows a part of the results, in another mix than the full data. Most entries show no effect beyond the scatter of the controls.
# Compound: Nc1ncnc2c1ncn2[C@@H]1O[C@H](COP(=O)(O)OP(=O)(O)OP(=O)(O)O)[C@@H](O)[C@H]1O [adenosine triphosphate]
# Assay: NP40-soluble protein abundance relative to vehicle (solubility fold change) (ratio); higher = more soluble protein in presence of ATP
# Procedure, shortened: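 Values are fold changes against the detergent-processed vehicle, based on vsn-normalised intensities. Jurkat crude lysate was treated at eight concentrations from 0.1 to 10 mM (10 min at room temperature, then 3 min at 37 °C), solubilised with 0.8% NP40 and benzonase, ultracentrifuged and analysed by TMT-labelled LC-MS/MS over three independent experiments.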
Target,NP40-soluble protein abundance (concentration: 0.1mM),NP40-soluble protein abundance (concentration: 0.5mM),NP40-soluble protein abundance (concentration: 1mM),NP40-soluble protein abundance (concentration: 2mM),NP40-soluble protein abundance (concentration: 4mM),NP40-soluble protein abundance (concentration: 6mM),NP40-soluble protein abundance (concentration: 8mM),NP40-soluble protein abundance (concentration: 10mM)
PIAS4 (UniProt Q8N2W9),0.975 ± 0.053,0.975 ± 0.1,,,,,,
UniProt Q8IVW6 and related entries,1.04 ± 0.054,0.976 ± 0.04,,,,,,
KLHL36 (UniProt Q8N4N3),0.98 ± 0.065,0.944 ± 0.055,,,,,,
ZCCHC9 (UniProt Q8N567),0.991 ± 0.066,1.14 ± 0.032,,,,,,
C9orf40 (UniProt Q8IXQ3),0.975 ± 0.094,0.961 ± 0.089,,,,,,
PSD4 (UniProt Q8NDX1),1 ± 0.024,1.07 ± 0.011,,,,,,
LPCAT1 (UniProt Q8NF37),1.07 ± 0.11,1.01 ± 0.059,,,,,,
GDAP1 (UniProt Q8TB36),0.945 ± 0.038,0.984 ± 0.076,,,,,,
UniProt Q8TAA5 and related entries,0.988 ± 0.045,0.889 ± 0.081,,,,,,
CMAS (UniProt Q8NFW8),1.05 ± 0.084,1.1 ± 0.04,,,,,,
CCDC82 (UniProt Q8N4S0),0.894 ± 0.024,0.733 ± 0.037,,,,,,
AVL9 (UniProt Q8NBF6),1.04 ± 0.023,1.01 ± 0.022,,,,,,
USP38 (UniProt Q8NB14),1.08 ± 0.04,1.05 ± 0.089,,,,,,
C1orf174 (UniProt Q8IYL3),0.894 ± 0.054,0.98 ± 0.087,,,,,,
UniProt Q8N0W3 and related entries,1.03 ± 0.029,0.936 ± 0.074,,,,,,
KBTBD8 (UniProt Q8NFY9),1 ± 0.12,1.09 ± 0.025,,,,,,
UniProt Q8N108 and related entries,0.964 ± 0.018,0.976 ± 0.032,,,,,,
PPTC7 (UniProt Q8NI37),0.985 ± 0.04,0.979 ± 0.18,,,,,,
UniProt Q8NCE2-2|Q8NCE2 and related entries,0.982 ± 0.021,1.01 ± 0.044,,,,,,
USP32 (UniProt Q8NFA0),0.998 ± 0.056,0.994 ± 0.13,,,,,,

Target,NP40-soluble protein abundance (concentration: 0.1mM),NP40-soluble protein abundance (concentration: 0.5mM),NP40-soluble protein abundance (concentration: 1mM),NP40-soluble protein abundance (concentration: 2mM),NP40-soluble protein abundance (concentration: 4mM),NP40-soluble protein abundance (concentration: 6mM),NP40-soluble protein abundance (concentration: 8mM),NP40-soluble protein abundance (concentration: 10mM)
UBR7 (UniProt Q8N806),1.02 ± 0.044,1 ± 0.054,,,,,,
SUPV3L1 (UniProt Q8IYB8),1.06 ± 0.056,1.05 ± 0.044,,,,,,
GSPT2 (UniProt Q8IYD1),1.03 ± 0.02,1.04 ± 0.08,1.035 ± 0.0061,1.023 ± 0.0095,1 ± 0.016,1.01 ± 0.02,0.991 ± 0.042,0.987 ± 0.037
FLCN (UniProt Q8NFG4),0.965 ± 0.074,0.991 ± 0.021,1.02 ± 0.056,1 ± 0.037,1.05 ± 0.066,0.988 ± 0.058,0.977 ± 0.07,0.974 ± 0.033
ZNF579 (UniProt Q8NAF0),1.1 ± 0.15,0.955 ± 0.091,0.954 ± 0.03,1.06 ± 0.12,0.945 ± 0.016,0.936 ± 0.073,0.901 ± 0.045,0.887 ± 0.1
UniProt Q8NCU8-2,0.666 ± 0.18,0.599 ± 0.048,0.876 ± 0.17,0.822 ± 0.086,0.826 ± 0.14,0.769 ± 0.068,0.883 ± 0.12,0.752 ± 0.038
SMC5 (UniProt Q8IY18),1.04 ± 0.031,1.05 ± 0.027,1.02 ± 0.026,1.02 ± 0.013,1.02 ± 0.02,1.04 ± 0.02,1.04 ± 0.016,1.04 ± 0.017
UniProt Q8IZ81 and related entries,1.04 ± 0.069,1.04 ± 0.08,1.01 ± 0.11,0.966 ± 0.089,0.958 ± 0.094,0.916 ± 0.12,0.967 ± 0.045,0.958 ± 0.057
DCUN1D3 (UniProt Q8IWE4),1.01 ± 0.14,0.911 ± 0.069,0.923 ± 0.038,0.949 ± 0.049,0.998 ± 0.035,0.92 ± 0.034,0.931 ± 0.039,0.866 ± 0.11
UniProt Q8NI08-2,1.05 ± 0.067,1.04 ± 0.023,0.989 ± 0.064,1.03 ± 0.032,1.01 ± 0.016,1.02 ± 0.022,0.989 ± 0.039,0.993 ± 0.024
DTWD1 (UniProt Q8N5C7),1.03 ± 0.036,0.999 ± 0.083,,,,,,
ZNF740 (UniProt Q8NDX6),0.976 ± 0.16,0.998 ± 0.077,,,,,,
FAM76A (UniProt Q8TAV0),0.973 ± 0.023,0.991 ± 0.042,,,,,,
UniProt Q8N137 and related entries,1 ± 0.075,1.03 ± 0.059,0.92 ± 0.024,1.032 ± 0.006,1.15 ± 0.056,0.983 ± 0.054,0.945 ± 0.026,0.947 ± 0.2
UniProt Q8N766 and related entries,0.976 ± 0.051,0.996 ± 0.018,0.974 ± 0.082,0.977 ± 0.065,0.982 ± 0.056,0.878 ± 0.1,0.934 ± 0.013,0.977 ± 0.052
UniProt Q8NB78,1.05 ± 0.06,1.05 ± 0.037,1.11 ± 0.064,1.09 ± 0.025,1.11 ± 0.08,0.998 ± 0.08,1.11 ± 0.035,1.09 ± 0.025
ZNF687 (UniProt Q8N1G0),0.952 ± 0.13,1.03 ± 0.12,,,,,,
DDX51 (UniProt Q8N8A6),1.02 ± 0.027,1.23 ± 0.08,1.25 ± 0.021,1.38 ± 0.085,1.65 ± 0.15,1.9 ± 0.22,2.05 ± 0.18,2.29 ± 0.27
DDX60 (UniProt Q8IY21),0.984 ± 0.038,1.07 ± 0.091,1.2 ± 0.078,1.27 ± 0.093,1.66 ± 0.11,1.73 ± 0.15,1.9 ± 0.16,1.95 ± 0.11
KBTBD2 (UniProt Q8IY47),1.07 ± 0.16,1.13 ± 0.069,1.14 ± 0.13,1.11 ± 0.027,1.15 ± 0.07,1.05 ± 0.044,1.16 ± 0.13,1.08 ± 0.026

# Record cards, from the list above. Order of values: NP40-soluble protein abundance (concentration: 0.1mM)	NP40-soluble protein abundance (concentration: 0.5mM)	NP40-soluble protein abundance (concentration: 1mM)	NP40-soluble protein abundance (concentration: 2mM)	NP40-soluble protein abundance (concentration: 4mM)	NP40-soluble protein abundance (concentration: 6mM)	NP40-soluble protein abundance (concentration: 8mM)	NP40-soluble protein abundance (concentration: 10mM)
# UniProt Q8NB78 as listed: 1.05 ± 0.06	1.05 ± 0.037	1.11 ± 0.064	1.09 ± 0.025	1.11 ± 0.08	0.998 ± 0.08	1.11 ± 0.035	1.09 ± 0.025
# ZNF579 (UniProt Q8NAF0) as listed: 1.1 ± 0.15	0.955 ± 0.091	0.954 ± 0.03	1.06 ± 0.12	0.945 ± 0.016	0.936 ± 0.073	0.901 ± 0.045	0.887 ± 0.1
# UniProt Q8IZ81 and related entries as listed: 1.04 ± 0.069	1.04 ± 0.08	1.01 ± 0.11	0.966 ± 0.089	0.958 ± 0.094	0.916 ± 0.12	0.967 ± 0.045	0.958 ± 0.057
# SMC5 (UniProt Q8IY18) as listed: 1.04 ± 0.031	1.05 ± 0.027	1.02 ± 0.026	1.02 ± 0.013	1.02 ± 0.02	1.04 ± 0.02	1.04 ± 0.016	1.04 ± 0.017

# Following part:

Target,NP40-soluble protein abundance (concentration: 0.1mM),NP40-soluble protein abundance (concentration: 0.5mM),NP40-soluble protein abundance (concentration: 1mM),NP40-soluble protein abundance (concentration: 2mM),NP40-soluble protein abundance (concentration: 4mM),NP40-soluble protein abundance (concentration: 6mM),NP40-soluble protein abundance (concentration: 8mM),NP40-soluble protein abundance (concentration: 10mM)
SCCPDH (UniProt Q8NBX0),1.04 ± 0.072,1.02 ± 0.064,,,,,,
UniProt Q8NEJ9 and related entries,1.01 ± 0.065,1.03 ± 0.11,1.11 ± 0.12,1.13 ± 0.16,1.24 ± 0.064,1.29 ± 0.14,1.32 ± 0.058,1.34 ± 0.19
NDUFAF2 (UniProt Q8N183),0.935 ± 0.15,0.885 ± 0.14,0.927 ± 0.11,0.916 ± 0.046,0.934 ± 0.093,0.906 ± 0.046,0.959 ± 0.062,0.848 ± 0.12
NHLRC2 (UniProt Q8NBF2),1.03 ± 0.1,1.07 ± 0.12,1.01 ± 0.078,0.994 ± 0.096,0.979 ± 0.091,0.976 ± 0.12,0.985 ± 0.1,0.983 ± 0.09
UniProt Q8NBL1,1.01 ± 0.048,1.04 ± 0.077,,,,,,
UniProt Q8NG08 and related entries,1.03 ± 0.11,1.02 ± 0.1,1.05 ± 0.18,1.06 ± 0.12,1.09 ± 0.16,0.955 ± 0.13,0.984 ± 0.066,1.01 ± 0.1
UniProt Q8N6R0,1.05 ± 0.067,1.03 ± 0.06,1.04 ± 0.096,1 ± 0.081,1.05 ± 0.072,0.979 ± 0.085,1.05 ± 0.075,1.01 ± 0.053
UniProt Q8IWZ8,0.977 ± 0.021,1.02 ± 0.033,1.03 ± 0.036,1.05 ± 0.037,1.08 ± 0.034,1.11 ± 0.068,1.11 ± 0.051,1.09 ± 0.037
UniProt Q8N6N3 and related entries,0.952 ± 0.084,0.848 ± 0.048,0.865 ± 0.1,0.81 ± 0.041,0.869 ± 0.13,0.822 ± 0.051,0.779 ± 0.12,0.817 ± 0.063
SNIP1 (UniProt Q8TAD8),1.11 ± 0.048,1.13 ± 0.043,1.18 ± 0.044,1.22 ± 0.055,1.44 ± 0.085,1.57 ± 0.098,1.67 ± 0.11,1.8 ± 0.1
UniProt Q8IY17 and related entries,1.01 ± 0.04,1.05 ± 0.053,1.05 ± 0.056,1.05 ± 0.033,1.028 ± 0.0096,1.01 ± 0.051,1.04 ± 0.04,1.06 ± 0.036
UniProt Q8NC60,0.964 ± 0.083,0.923 ± 0.13,0.967 ± 0.17,0.876 ± 0.13,0.889 ± 0.13,0.876 ± 0.2,0.945 ± 0.15,0.942 ± 0.14
ZCCHC7 (UniProt Q8N3Z6),1.0226 ± 0.00045,1.12 ± 0.022,1.02 ± 0.19,1.2 ± 0.026,1.34 ± 0.021,1.48 ± 0.018,1.51 ± 0.15,1.79 ± 0.044
UniProt Q8N684 and related entries,1.03 ± 0.023,1.33 ± 0.06,1.51 ± 0.076,1.61 ± 0.016,1.75 ± 0.065,1.81 ± 0.081,1.82 ± 0.055,1.83 ± 0.032
UniProt Q8NCA5 and related entries,0.992 ± 0.068,1.01 ± 0.1,1.01 ± 0.056,1.14 ± 0.15,1.18 ± 0.12,1.26 ± 0.14,1.41 ± 0.14,1.64 ± 0.23
PDCD7 (UniProt Q8N8D1),1.02 ± 0.12,1.15 ± 0.15,1.22 ± 0.14,1.24 ± 0.058,1.48 ± 0.099,1.48 ± 0.024,1.49 ± 0.13,1.76 ± 0.16
KIF18A (UniProt Q8NI77),0.999 ± 0.051,0.906 ± 0.061,1.09 ± 0.11,0.996 ± 0.2,1.09 ± 0.035,1.06 ± 0.013,1.09 ± 0.18,1.18 ± 0.16
UniProt Q8N573 and related entries,1.04 ± 0.032,1.01 ± 0.022,,,,,,
UniProt Q8N3X1 and related entries,0.903 ± 0.017,0.952 ± 0.0036,1.01 ± 0.026,1.11 ± 0.013,1.29 ± 0.042,1.57 ± 0.027,1.72 ± 0.08,1.9 ± 0.082
